# Experimental data reported in patent publication US9650419B2 (Research & Business Foundation SUNGKYUNKWAN UNIVERSITY, priority 2014, dated 2017).
# Experiment: general procedure: Fmoc solid-phase peptide synthesis; H-rink amide resin (PCAS 0.53 mmol substitution); HBTU
# Conditions: whole synthesis, Agilent 1260 HPLC, ZORBAX 300SB-C3
substance,measurement,value
"Ac-KVK EVF FVK EVF FVK EVY-NH2 (KVKEVFFVKEVFFVKEVY; beta-amino acids; N-acetyl, C-amide)",final HPLC purity,90% or above
